Measurements as given in PMC12187842, “A novel molecule targeting neutrophil-mediated B-1a cell trogocytosis attenuates sepsis-induced acute lung injury” (Frontiers in Immunology, 2025).
No constants are given. Whether binding was seen depends on the method and setting. Some entries that bind do so weakly or less than the wild type.

Biological target: T1, recombinant mouse (rm)Siglec-G (mouse, UniProt Q80ZE3 18-543)
T1 construct: Siglec-G, mouse, recombinant; UniProt Q80ZE3 is printed for the in silico model; check the vendor's data sheet; source: bought: R&D Systems (Cat. No. 10103-SL-050)
T1 sequence (looked up): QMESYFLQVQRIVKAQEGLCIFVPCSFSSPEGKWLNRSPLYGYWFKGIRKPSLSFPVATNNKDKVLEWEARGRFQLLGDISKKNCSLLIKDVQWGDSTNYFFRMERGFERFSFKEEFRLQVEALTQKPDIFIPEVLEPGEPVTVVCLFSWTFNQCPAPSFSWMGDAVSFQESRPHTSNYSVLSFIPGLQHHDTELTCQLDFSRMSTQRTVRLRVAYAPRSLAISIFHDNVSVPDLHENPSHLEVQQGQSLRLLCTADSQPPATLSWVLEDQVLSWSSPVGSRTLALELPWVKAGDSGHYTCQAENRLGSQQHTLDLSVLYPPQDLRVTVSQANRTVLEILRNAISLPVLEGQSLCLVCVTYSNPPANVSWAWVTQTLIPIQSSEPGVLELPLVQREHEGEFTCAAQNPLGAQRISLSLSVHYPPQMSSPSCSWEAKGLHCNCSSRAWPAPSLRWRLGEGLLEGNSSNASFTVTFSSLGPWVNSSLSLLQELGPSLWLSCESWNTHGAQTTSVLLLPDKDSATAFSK
Assay: SPR; same setting as a1 (rmCD47 immobilised on HS-carboxyl sensor); peptide C11 at 1 µM preincubated for 30 minutes with rmSiglec-G at 100, 250 and 500 nM, then injected; both purified

B1: Compound 11 (C11) (peptide)
peptide: ELKNRTVSWFS
binding: binds
